This note sets out measurements from publication PMC12240075.

The chains behind the UniProt entries cited, without tags or fusion partners.
UniProt P11142: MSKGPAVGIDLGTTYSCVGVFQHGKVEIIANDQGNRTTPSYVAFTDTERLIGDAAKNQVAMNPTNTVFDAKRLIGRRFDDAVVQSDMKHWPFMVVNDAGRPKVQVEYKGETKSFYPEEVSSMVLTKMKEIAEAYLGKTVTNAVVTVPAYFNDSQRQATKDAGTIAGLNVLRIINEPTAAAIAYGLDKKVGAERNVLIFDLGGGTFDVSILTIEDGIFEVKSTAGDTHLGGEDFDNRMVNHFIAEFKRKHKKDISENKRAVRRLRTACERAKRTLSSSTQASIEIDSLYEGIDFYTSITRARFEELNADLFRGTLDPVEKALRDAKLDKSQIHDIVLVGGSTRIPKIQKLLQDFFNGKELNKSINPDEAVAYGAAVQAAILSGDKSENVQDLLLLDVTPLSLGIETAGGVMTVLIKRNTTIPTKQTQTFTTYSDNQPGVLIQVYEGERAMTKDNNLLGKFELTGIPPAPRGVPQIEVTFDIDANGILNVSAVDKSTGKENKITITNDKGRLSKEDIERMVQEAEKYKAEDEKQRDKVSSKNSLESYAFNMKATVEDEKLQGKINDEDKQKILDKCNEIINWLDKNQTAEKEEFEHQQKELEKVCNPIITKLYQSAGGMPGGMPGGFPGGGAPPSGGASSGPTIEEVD
UniProt P25490: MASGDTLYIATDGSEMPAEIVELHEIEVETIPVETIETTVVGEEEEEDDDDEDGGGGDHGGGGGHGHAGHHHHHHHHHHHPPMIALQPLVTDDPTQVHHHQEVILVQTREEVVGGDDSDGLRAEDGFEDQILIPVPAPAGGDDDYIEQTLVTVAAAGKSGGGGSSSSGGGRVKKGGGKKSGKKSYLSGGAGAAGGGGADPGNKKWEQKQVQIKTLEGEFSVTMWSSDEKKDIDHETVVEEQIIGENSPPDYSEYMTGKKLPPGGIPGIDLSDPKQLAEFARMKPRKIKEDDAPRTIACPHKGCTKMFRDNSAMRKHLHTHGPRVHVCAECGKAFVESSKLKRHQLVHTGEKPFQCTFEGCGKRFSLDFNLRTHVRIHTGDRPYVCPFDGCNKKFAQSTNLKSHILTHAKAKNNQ
UniProt Q9C0K0: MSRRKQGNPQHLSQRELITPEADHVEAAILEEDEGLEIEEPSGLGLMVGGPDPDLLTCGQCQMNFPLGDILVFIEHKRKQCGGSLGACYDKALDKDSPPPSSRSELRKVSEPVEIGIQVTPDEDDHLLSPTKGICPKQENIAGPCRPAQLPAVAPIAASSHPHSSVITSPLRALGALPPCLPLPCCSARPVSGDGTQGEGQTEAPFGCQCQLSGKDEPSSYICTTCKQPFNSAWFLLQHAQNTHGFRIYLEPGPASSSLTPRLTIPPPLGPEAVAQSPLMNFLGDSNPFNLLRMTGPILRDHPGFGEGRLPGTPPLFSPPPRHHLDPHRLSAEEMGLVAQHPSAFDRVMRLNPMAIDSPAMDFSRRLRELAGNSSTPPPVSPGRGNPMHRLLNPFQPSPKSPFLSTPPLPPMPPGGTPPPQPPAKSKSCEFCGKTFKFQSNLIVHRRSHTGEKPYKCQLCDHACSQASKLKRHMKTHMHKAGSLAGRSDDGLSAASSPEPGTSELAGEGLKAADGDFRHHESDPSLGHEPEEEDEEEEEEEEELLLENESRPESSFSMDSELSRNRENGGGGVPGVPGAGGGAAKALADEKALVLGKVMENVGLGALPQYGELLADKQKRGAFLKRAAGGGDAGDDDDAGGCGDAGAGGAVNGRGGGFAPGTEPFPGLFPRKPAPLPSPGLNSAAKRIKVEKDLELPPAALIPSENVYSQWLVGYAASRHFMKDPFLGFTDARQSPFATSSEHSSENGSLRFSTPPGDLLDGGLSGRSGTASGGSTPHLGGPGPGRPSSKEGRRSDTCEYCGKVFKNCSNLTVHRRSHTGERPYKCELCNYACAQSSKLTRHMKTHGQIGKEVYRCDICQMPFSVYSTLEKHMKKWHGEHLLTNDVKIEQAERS

Sequences and labels used below:
B1: nucleoporin Nup107 (protein, UniProt P57740 1-925)
chain: MDRSGFGEISSPVIREAEVTRTARKQSAQKRVLLQASQDENFGNTTPRNQVIPRTPSSFRQPFTPTSRSLLRQPDISCILGTGGKSPRLTQSSGFFGNLSMVTNLDDSNWAAAFSSQRSGLFTNTEPHSITEDVTISAVMLREDDPGEAASMSMFSDFLQSFLKHSSSTVFDLVEEYENICGSQVNILSKIVSRATPGLQKFSKTASMLWLLQQEMVTWRLLASLYRDRIQSALEEESVFAVTAVNASEKTVVEALFQRDSLVRQSQLVVDWLESIAKDEIGEFSDNIEFYAKSVYWENTLHTLKQRQLTSYVGSVRPLVTELDPDAPIRQKMPLDDLDREDEVRLLKYLFTLIRAGMTEEAQRLCKRCGQAWRAATLEGWKLYHDPNVNGGTELEPVEGNPYRRIWKISCWRMAEDELFNRYERAIYAALSGNLKQLLPVCDTWEDTVWAYFRVMVDSLVEQEIQTSVATLDETEELPREYLGANWTLEKVFEELQATDKKRVLEENQEHYHIVQKFLILGDIDGLMDEFSKWLSKSRNNLPGHLLRFMTHLILFFRTLGLQTKEEVSIEVLKTYIQLLIREKHTNLIAFYTCHLPQDLAVAQYALFLESVTEFEQRHHCLELAKEADLDVATITKTVVENIRKKDNGEFSHHDLAPALDTGTTEEDRLKIDVIDWLVFDPAQRAEALKQGNAIMRKFLASKKHEAAKEVFVKIPQDSIAEIYNQCEEQGMESPLPAEDDNAIREHLCIRAYLEAHETFNEWFKHMNSVPQKPALIPQPTFTEKVAHEHKEKKYEMDFGIWKGHLDALTADVKEKMYNVLLFVDGGWMVDVREDAKEDHERTHQMVLLRKLCLPMLCFLLHTILHSTGQYQECLQLADMVSSERHKLYLVFSKEELRKLLQKLRESSLMLLDQGLDPLGYEIQL

Results are given in words; binding and its absence hold for the method and conditions named. In cells and extracts the contact can be indirect. Here binding means that the protein was enriched with, or labelled near, the bait; the list need not be complete.

For the experiment, the target named is HA-HSC70 (UniProt P11142). The experiment is described as follows: affinity purification with mass spectrometry; label-free quantitative MS of the HA-HSC70-WT and HA-HSC70-5A interactomes.
With “transcription repressor Yin Yang 1 (from UniProt P25490 1-414)”, the binding entry is on record as “binds”.
In the case of “transcriptional regulatory protein Bcl11b (from UniProt Q9C0K0 1-894)”, the binding result is “binds”.
Under B1 stands “binds”.
